Results: US5830994A, “Peptide derivatives of alpha-MSH and their application” (Institut Europeen De Biologie Cellulaire, priority 1993, dated 1998)
“Also recorded” adds a separate entry of the source. Part of at least one peptide drawing is inferred or uncertain, most often the ends. Where a SMILES comes first, the peptide text is derived from it. [ ]: non-standard residue; d: D form. The star is where a group is joined. ξ: configuration not given here. Phe(4-F) = N[C@@H](Cc1ccc(F)cc1)C(=O)O; d(hPhe) = N[C@H](CCc1ccccc1)C(=O)O; Lipoyl(6ξ) = O=C(CCCCC1CCSS1)*

Columns and labels:
[1] = tested on: DNFB contact hypersensitivity; experiment: Dinitrofluorobenzene (DNFB) contact hypersensitivity test, ear thickening after topical application; assay type: in vivo, C57 BL/6JICO mice; details: for % SUPPRESSION RELATIVE TO THE CONTROL BATCH, Left Ear / % SUPPRESSION RELATIVE TO THE CONTROL BATCH, Right Ear / LEFT EAR MEAN % INCREASE / RIGHT EAR MEAN % INCREASE / suppression of cutaneous hypersensitivity: Example 13; for % suppression relative to the control batch, LEFT EAR / % suppression relative to the control batch, RIGHT EAR / MEAN VALUES LEFT EAR % INCREASE / MEAN VALUES RIGHT EAR % INCREASE: 5 days
From the text: Study of the Anti-allergic activity of the Peptide compounds, by the Dinitrofluorobenzene (DNFB) contact Hypersensitivity test.
Female C57 BL/6JICO mice 5 weeks old are separated into ten batches of ten animals (five per cage), with free access to water and food, subjected to a photoperiod of twelve hours of light per twenty-four hours.
The animals in batches 1 to 6 receive daily and per topical application on the shaved skin of the back, the products to be studied, dissolved in propylene glycol, in a constant volume of 50 μl and for five consecutive days.
PIII--Batches 1 - 2 - 3--2.5 μg --0.5 μg--0.1 μg--mouse/day
PIV--Batches 4 - 5 - 6 - 2.5μg--0.5 μg--0.1 μg--mouse/day
The animals of the X batch serve as controls (and receive only, 50 μl of propylene glycol per topical application for five days).
(§1) On the fifth day, thirty minutes after the last application, all the mice are sensitized with 25 μl of DNFB (2.4-Dinitro-1-FluoroBenzene (FLUKA CHEMIKA PURUM at 97% batch No. 33820890) at 2% in a 4 to 1 mixture of acetone (SDS ref. 0510) and triolein (FLUKA) applied topically over the dorsal region of shaved skin.
On the sixth day, a new sensitization is carried out by application of DNFB.
On the eleventh day, the thickness of the ears of the mice is measured with the aid of a micrometer (ROCH 0 to 25 mm in 1/100 mm) in order to obtain base values, then the ears are stimulated by topical application of 20 μl of DNFB at 0.8%.
(§2) On the twelfth day, the thickness of the ears is again measured. The mean value of thickening of the ears is established for the mice in the batches which had received the products to be studied, as well as for the mice in the control batch.
The percentage of suppression where appropriate will be expressed by the following calculation: [formula]
Comparative study of the activity of Lipoyl-Peptides and of their peptide structures on DNFB contact hypersensitivity.
The method used is that described above in Example 10.
Contact hypersensitivity induced in mice by Dinitrofluorobenzene--"DNBF"
Batch I: (DL) - Lip - Glu - His - D.homoPhe - Arg - Trp - Gly - NH2
Batch II: H - Glu - His - D.homoPhe - Arg - Trp - Gly - NH2
Batch III: Control=(DL) - Lipoic Acid
Solvent: propylene Glycol previously used as control in Example 10.
Control: dose used"DL-Lipoic-Acid"=10 ng per mouse and per day.
as §1, with “were” for “are”, “05510)” for “0510)”
as §2, with “batch. The percentage of suppression where appropriate will be expressed by the following calculation: [formula]” for “batch.”

[2] = tested on: PGE2 production by MRC5 fibroblasts stimulated by IL1; experiment: PGE2 production by fibroblasts stimulated by IL1 (RIA); assay type: cell-based, human; details: for % inhibition (PGE2) / PGE2: MRC5
Procedure: 2-1 Culture of embryonic pulmonary fibroplasts [sic] of human origin:
We chose to use the strain ATCC MRC5 maintained in the laboratory continuously and already tested by Cannon et al. (J. Immunol., 1986).
After subculturing, the fibroplasts [sic] are cultured in microwells (24-well plate of 2 cm2, Falcon). The innoculum is 30 000 cells per well; the nutrient medium used is composed of RPMI 1640 (90%) and of complement-free fetal calf serum (FCS, 10%). The medium is changed every two days until the cells become confluent.
The monocell layers thus obtained are washed and preincubated for 24 hours in fresh medium containing only 1% of FCS. […] After incubating for 20 minutes in the presence of these compounds, human recombinant IL1 (Tebu, France) at a concentration of 5, 2.5 or 0.5 ng/ml of medium is placed in contact with cells for 18 hours.
At the end of this incubation, the supernatants are collected and frozen at -80° C. until the analysis is carried out. The monocell layers are fixed with methanol.
The RIA assay is carried out according to the method described by Dray et al. (Europ. J. Invest. 1975). 3 series of experiments, in duplicate, were carried out for each concentration of product studied and for the controls. The results are expressed in pg/μg of DNA. The inhibitory effect is expressed in percentage relative to the controls.
In order to avoid any possible error due to the counting by optical microscopy, the DNA was assayed by a fluorimetric method according to the procedure described by Brunk et al. (Analytical Biochem., 1979).

## N=C(N)NCCC[C@H](NC(=O)[C@@H](CCc1ccccc1)NC(=O)[C@H](Cc1c[nH]cn1)NC(=O)[C@@H](N)CCC(=O)O)C(=O)N[C@@H](Cc1c[nH]c2ccccc12)C(=O)NCC(N)=O [Batch II, H - Glu - His - D.homoPhe - Arg - Trp - Gly - NH2, reference compound] (H-EH[d(hPhe)]RWG-NH2)
[1]; 1 ng/mouse/day
  % SUPPRESSION RELATIVE TO THE CONTROL BATCH, Left Ear: 37.08%
  % SUPPRESSION RELATIVE TO THE CONTROL BATCH, Right Ear: 37.08%
  LEFT EAR MEAN % INCREASE: 37.07%
  RIGHT EAR MEAN % INCREASE: 37.07%
  suppression of cutaneous hypersensitivity: ~37.08%
[1]; 10 ng/mouse/day
  % SUPPRESSION RELATIVE TO THE CONTROL BATCH, Left Ear: 40.83%
  % SUPPRESSION RELATIVE TO THE CONTROL BATCH, Right Ear: 40.87%
  LEFT EAR MEAN % INCREASE: 34.84%
  RIGHT EAR MEAN % INCREASE: 34.84%
  suppression of cutaneous hypersensitivity: 40%
[1]; 100 ng/mouse/day
  % SUPPRESSION RELATIVE TO THE CONTROL BATCH, Left Ear: 27.15%
  % SUPPRESSION RELATIVE TO THE CONTROL BATCH, Right Ear: 27.15%
  LEFT EAR MEAN % INCREASE: 43.10%
  RIGHT EAR MEAN % INCREASE: 43.10%
  suppression of cutaneous hypersensitivity: ~27.15%

## N=C(N)NCCC[C@H](NC(=O)[C@H](Cc1ccc(F)cc1)NC(=O)[C@H](Cc1c[nH]cn1)NC(=O)[C@H](CCC(=O)O)NC(=O)CCCCC1CCSS1)C(=O)N[C@@H](Cc1c[nH]c2ccccc12)C(=O)NCC(N)=O (stereo partly drawn) [PIII, [(DL) Lip] Glu - His - ParaFluoroPhe - Arg - Trp - Gly - NH2] ({Lipoyl(6ξ)}-EH[Phe(4-F)]RWG-NH2)
[1]; 0.1 μg/mouse/day topical
  % suppression relative to the control batch, LEFT EAR: -69.94%
  % suppression relative to the control batch, RIGHT EAR: -69.94%
  MEAN VALUES LEFT EAR % INCREASE: 17.71%
  MEAN VALUES RIGHT EAR % INCREASE: 17.71%
[1]; 0.5 μg/mouse/day topical
  % suppression relative to the control batch, LEFT EAR: -66.38%
  % suppression relative to the control batch, RIGHT EAR: -66.38%
  MEAN VALUES LEFT EAR % INCREASE: 19.81%
  MEAN VALUES RIGHT EAR % INCREASE: 19.81%
[1]; 2.5 μg/mouse/day topical
  % suppression relative to the control batch, LEFT EAR: -67.40%
  % suppression relative to the control batch, RIGHT EAR: -67.40%
  MEAN VALUES LEFT EAR % INCREASE: 19.21%
  MEAN VALUES RIGHT EAR % INCREASE: 19.21%
[1]; overall, Example 10 (2.5, 0.5, 0.1 μg/mouse/day)
  suppression of the cutaneous hypersensitivity reaction induced by DiNitroFluoroBenzene: 67.90%
[2]; IL1:0.5 ng, 10^-4 M
  % inhibition (PGE2): 60%
  PGE2: 113 ± 25 pg/μg of DNA
[2]; IL1:0.5 ng, 10^-5 M
  % inhibition (PGE2): 38%
  PGE2: 176 ± 37 pg/μg of DNA
[2]; IL1:0.5 ng, 10^-6 M
  % inhibition (PGE2): 19%
  PGE2: 231 ± 55 pg/μg of DNA
[2]; IL1:0.5 ng, 10^-7 M
  % inhibition (PGE2): 13%
  PGE2: 249 ± 60 pg/μg of DNA
[2]; IL1:0.5 ng, 10^-8 M
  % inhibition (PGE2): 10%
  PGE2: 258 ± 35 pg/μg of DNA
[2]; IL1:0.5 ng, 10^-9 M
  % inhibition (PGE2): no inhibition
  PGE2: 364 ± 56 pg/μg of DNA
[2]; IL1:2.5 ng, 10^-4 M
  % inhibition (PGE2): 53%
  PGE2: 179 ± 50 pg/μg of DNA
[2]; IL1:2.5 ng, 10^-5 M
  % inhibition (PGE2): 40%
  PGE2: 232 ± 45 pg/μg of DNA
[2]; IL1:2.5 ng, 10^-6 M
  % inhibition (PGE2): 24%
  PGE2: 292 ± 68 pg/μg of DNA
[2]; IL1:2.5 ng, 10^-7 M
  % inhibition (PGE2): 6%
  PGE2: 364 ± 68 pg/μg of DNA
[2]; IL1:2.5 ng, 10^-8 M
  % inhibition (PGE2): 13%
  PGE2: 335 ± 50 pg/μg of DNA
[2]; IL1:2.5 ng, 10^-9 M
  % inhibition (PGE2): 17%
  PGE2: 320 ± 43 pg/μg of DNA
[2]; overall
  inhibitory action on IL1-stimulated PGE2 production (in words): good inhibitory action; also recorded: possess an inhibitory power
[2]; starting from 10^-7M, IL1 2.5 and 0.5 ng
  action on PGE2 production at low concentration (in words): No action
